# Results as given in the supplement of paper PMC8728848.
# The list shows a part of the results.
# Experiments:
# Experiment in all cases: glycan array binding signal (z-score within array); higher = stronger binding
# Settings in all cases: glycan notation: IUPAC condensed, linker removed
# Neu5Ac(a2-8)Neu5Ac = target: Neu5Ac(a2-8)Neu5Ac
# In short: (§1)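 Glycan array data were curated from 3228 arrays in the Consortium for Functional Glycomics database and kept only where the protein sequence was available. Glycan names were converted to IUPAC-condensed notation, and columns mapping to the same glycan were averaged. The binding signal is a within-array Z-score, averaged across arrays of the same protein sequence at different concentrations or buffers and across linkers. Negative Z-scores can be read as non-binding.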
# [1] = target: Neu5Ac(a2-8)Neu5Ac(a2-3)Gal(b1-3)GalNAc(b1-4)[Neu5Ac(a2-3)]Gal(b1-4)Glc
# In short: as §1
# [2] = target: Neu5Ac(a2-8)Neu5Ac(a2-3)Gal(b1-3)GalNAc(b1-4)[Neu5Ac(a2-8)Neu5Ac(a2-3)]Gal(b1-4)Glc
# In short: as §1
# [3] = target: Neu5Ac(a2-8)Neu5Ac(a2-3)Gal(b1-4)Glc
# In short: as §1
# [4] = target: Neu5Ac(a2-8)Neu5Ac(a2-3)Gal(b1-4)GlcNAc
# In short: as §1
# [5] = target: Neu5Ac(a2-8)Neu5Ac(a2-3)[Gal(b1-3)GalNAc(b1-4)]Gal(b1-4)Glc
# In short: as §1
# [6] = target: Neu5Ac(a2-8)Neu5Ac(a2-3)[GalNAc(b1-4)]Gal(b1-4)Glc
# In short: as §1
# [7] = target: Neu5Ac(a2-8)Neu5Ac(a2-8)Neu5Ac
# In short: as §1
# [8] = target: Neu5Ac(a2-8)Neu5Ac(a2-8)Neu5Ac(a2-3)Gal(b1-4)Glc
# In short: as §1
# [9] = target: Neu5Ac(a2-8)Neu5Ac(a2-8)Neu5Ac(a2-3)[Gal(b1-3)GalNAc(b1-4)]Gal(b1-4)Glc
# In short: as §1
# [10] = target: Neu5Ac(a2-8)Neu5Ac(a2-8)Neu5Ac(a2-3)[GalNAc(b1-4)]Gal(b1-4)Glc
# In short: as §1
# [11] = target: Neu5Ac(a2-8)Neu5Ac(a2-8)Neu5Ac(a2-8)Neu5Ac(a2-3)[GalNAc(b1-4)]Gal(b1-4)Glc
# In short: as §1
# [12] = target: Neu5Ac(a2-8)Neu5Gc(a2-3)Gal(b1-4)GlcNAc
# In short: as §1
# [13] = target: Neu5Ac(b2-6)Gal(b1-4)GlcNAc
# In short: as §1
# Neu5Ac(b2-6)GalNAc = target: Neu5Ac(b2-6)GalNAc
# In short: as §1
# [14] = target: Neu5Ac9Ac(a2-3)Gal(b1-3)GlcNAc
# In short: as §1
# [15] = target: Neu5Ac9Ac(a2-3)Gal(b1-4)GlcNAc
# In short: as §1
# [16] = target: Neu5Ac9Ac(a2-6)Gal(b1-4)GlcNAc
# In short: as §1
# [17] = target: Neu5Gc(a2-3)Gal(b1-3)GlcNAc
# In short: as §1
# [18] = target: Neu5Gc(a2-3)Gal(b1-3)[Fuc(a1-4)]GlcNAc
# In short: as §1
# Neu5Gc(a2-3)Gal(b1-4)Glc = target: Neu5Gc(a2-3)Gal(b1-4)Glc
# In short: as §1
# [19] = target: Neu5Gc(a2-3)Gal(b1-4)GlcNAc
# In short: as §1
# [20] = target: Neu5Gc(a2-3)Gal(b1-4)GlcNAc(b1-3)Gal(b1-4)GlcNAc(b1-2)Man(a1-3)[Neu5Gc(a2-3)Gal(b1-4)GlcNAc(b1-3)Gal(b1-4)GlcNAc(b1-2)Man(a1-6)]Man(b1-4)GlcNAc(b1-4)GlcNAc
# In short: as §1
# [21] = target: Neu5Gc(a2-3)Gal(b1-4)[Fuc(a1-3)]GlcNAc
# In short: as §1
# [22] = target: Neu5Gc(a2-6)Gal(b1-4)GlcNAc
# In short: as §1
# Neu5Gc(a2-6)GalNAc = target: Neu5Gc(a2-6)GalNAc
# In short: as §1
# [23] = target: Neu5Gc(a2-8)Neu5Ac(a2-3)Gal(b1-4)GlcNAc
# In short: as §1
# [24] = target: Neu5Gc(a2-8)Neu5Gc(a2-3)Gal(b1-4)GlcNAc
# In short: as §1
# [25] = target: Neu5Gc(a2-8)Neu5Gc(a2-3)Gal(b1-4)GlcNAc(b1-3)Gal(b1-4)GlcNAc
# In short: as §1
# [26] = target: Neu5Gc(a2-8)Neu5Gc(a2-6)Gal(b1-4)GlcNAc
# In short: as §1
# [27] = target: Neu5Gc(b2-6)Gal(b1-4)GlcNAc
# In short: as §1
binder,measurement,setting,value
Awp1 (Candida glabrata) (protein) MSLITIFAFLIKATLVLSLDILTPTTLTGDQTFNEDVSVVSSLTLNDGSQYLFNNLLQIAPSSASVTANALAAVSVFTFSLPPSSSLSNSGTLIISNSNTGPSTEQHIVITPNVMANTGTITLSLAHTNTDSSSTLIIDPVTFYNTGTINYESIGSETNDPSLTGNILSIGSSGRTLQNLGTINLNAANSYYLLGTITENSGSINVQKGFLYVNALDFIGNTINLSTTTALAFISPVSQVVRVRGVFFGNIIASVGSSGTFSYNTQTGILTVTTNGVYSYDIGCGYNPALMSGQQETLSFQGNPYDTFLVLVNQPIPSDLTCAAVSSSITPSSSVEPSSSVVPSSSVEPSSSVEPSSSVEPSSSVEPSSSVEPSSSVEPSSSVEPSSSVEPSSSVEPSSSVEPSSSVEPSSSVEPSSSVEPSSSVEPSSSVEPSSSVEPSSSVEPSSSVEPSSSVEPSSLIVPSSSVEPSSSVLPSSSVVPSSSVEPSTPPIPSSSVEPSSSVVPSSPAVPSSSVEPSTPPIPSSSVVSASVFDTSSTLPSSPSVPPSSVSPSTISTPSSSAAPSSFCPTCVSSGTPPAPSSSAIVPTSSAGGGNGGDNREPGAAGQPGAAGQPGAAGQPGAAGQPGAAGQPGAAGQPGAAGQPGAAGQPGAAGQPGAAGQPGAGFGVGSEQPTPGAGAGSGSADGNQSGTGSGTGNGQQGSGQAGSGQAGSGQEGSGQAGSGQAGSGQAGSGQAGSGQAGLDNTASGQSEGGQASAMDGDQSGRDGQSNSGSLLQPNAQQGTGSGTGSDIGADQASGESPGQIGDAQPGSGTDQSSGRHSLAAEARTSQSHSLAADARTRSTTRQTSVIAPDTAPGTASGTAPGTAPGTAVVTTFHGCGTVNHKGMINILLALALLVLL,glycan array binding signal (z-score),Neu5Ac(a2-8)Neu5Ac,-1.66
same,glycan array binding signal (z-score),[1],1.39
same,glycan array binding signal (z-score),[2],0.954
same,glycan array binding signal (z-score),[3],0.225
same,glycan array binding signal (z-score),[4],-0.772
same,glycan array binding signal (z-score),[5],1.4
same,glycan array binding signal (z-score),[6],0.458
same,glycan array binding signal (z-score),[7],0.396
same,glycan array binding signal (z-score),[8],0.964
same,glycan array binding signal (z-score),[9],-0.734
same,glycan array binding signal (z-score),[10],0.706
same,glycan array binding signal (z-score),[11],-1.71
same,glycan array binding signal (z-score),[12],-0.628
same,glycan array binding signal (z-score),[13],0.599
same,glycan array binding signal (z-score),Neu5Ac(b2-6)GalNAc,-0.475
same,glycan array binding signal (z-score),[14],-0.768
same,glycan array binding signal (z-score),[15],-0.636
same,glycan array binding signal (z-score),[16],0.53
same,glycan array binding signal (z-score),[17],-1.5
same,glycan array binding signal (z-score),[18],-0.121
same,glycan array binding signal (z-score),Neu5Gc(a2-3)Gal(b1-4)Glc,0.53
same,glycan array binding signal (z-score),[19],0.095
same,glycan array binding signal (z-score),[20],0.265
same,glycan array binding signal (z-score),[21],0.366
same,glycan array binding signal (z-score),[22],0.302
same,glycan array binding signal (z-score),Neu5Gc(a2-6)GalNAc,-0.217
same,glycan array binding signal (z-score),[23],0.588
same,glycan array binding signal (z-score),[24],-1.68
same,glycan array binding signal (z-score),[25],-1.79
same,glycan array binding signal (z-score),[26],0.366
same,glycan array binding signal (z-score),[27],-0.509

# Laid out differently: entries from further up
binder | measurement | setting | value
Awp1 (Candida glabrata) (protein) MSLITIFAFLIKATLVLSLDILTPTTLTGDQTFNEDVSVVSSLTLNDGSQYLFNNLLQIAPSSASVTANALAAVSVFTFSLPPSSSLSNSGTLIISNSNTGPSTEQHIVITPNVMANTGTITLSLAHTNTDSSSTLIIDPVTFYNTGTINYESIGSETNDPSLTGNILSIGSSGRTLQNLGTINLNAANSYYLLGTITENSGSINVQKGFLYVNALDFIGNTINLSTTTALAFISPVSQVVRVRGVFFGNIIASVGSSGTFSYNTQTGILTVTTNGVYSYDIGCGYNPALMSGQQETLSFQGNPYDTFLVLVNQPIPSDLTCAAVSSSITPSSSVEPSSSVVPSSSVEPSSSVEPSSSVEPSSSVEPSSSVEPSSSVEPSSSVEPSSSVEPSSSVEPSSSVEPSSSVEPSSSVEPSSSVEPSSSVEPSSSVEPSSSVEPSSSVEPSSSVEPSSSVEPSSLIVPSSSVEPSSSVLPSSSVVPSSSVEPSTPPIPSSSVEPSSSVVPSSPAVPSSSVEPSTPPIPSSSVVSASVFDTSSTLPSSPSVPPSSVSPSTISTPSSSAAPSSFCPTCVSSGTPPAPSSSAIVPTSSAGGGNGGDNREPGAAGQPGAAGQPGAAGQPGAAGQPGAAGQPGAAGQPGAAGQPGAAGQPGAAGQPGAAGQPGAGFGVGSEQPTPGAGAGSGSADGNQSGTGSGTGNGQQGSGQAGSGQAGSGQEGSGQAGSGQAGSGQAGSGQAGSGQAGLDNTASGQSEGGQASAMDGDQSGRDGQSNSGSLLQPNAQQGTGSGTGSDIGADQASGESPGQIGDAQPGSGTDQSSGRHSLAAEARTSQSHSLAADARTRSTTRQTSVIAPDTAPGTASGTAPGTAPGTAVVTTFHGCGTVNHKGMINILLALALLVLL | glycan array binding signal (z-score) | [1] | 1.39
same | glycan array binding signal (z-score) | [2] | 0.954
